Laboratory results from patent publication US20200010910A1, “Cytotoxic Chemotherapy-Based Predictive Assays for Acute Myeloid Leukemia” (The Regents of The University of California, priority 2017, published 2020).

Test system: A549
Test: MTT assay IC50
Format: cell-based, human
Method: Six non-small cell lung cancer (NSCLC) cell lines were treated in culture with [^14C]carboplatin. Carboplatin-DNA monoadduct levels over time were determined by measuring ^14C content in genomic DNA with accelerator mass spectrometry (AMS). Cellular sensitivity to carboplatin and cisplatin was analyzed by the MTT assay (Henderson et al., International Journal of Cancer 2011).
Human NSCLC cell lines H23, H460, H727, HCC827, H1975, and A549 were purchased from ATCC and were cultured with the recommended medium. The MTT assay was performed as previously reported to determine the drug concentration required to inhibit cell growth by 50% (IC50) of cisplatin and carboplatin. [^14C]Carboplatin (at 53 mCi/mmol) was mixed with unlabeled carboplatin to achieve the specific activities required for microdoses and therapeutic doses. Table 1 lists the six NSCLC cell lines and summarizes their IC50 characteristics, induced carboplatin-DNA monoadducts when treated with [^14C]carboplatin, and p and r^2 values for correlation analysis to the IC50 concentrations.

N.N.[Cl][Pt][Cl] [cisplatin]
IC50: 26.3 µM
